The values that follow come from publication PMC9288509.

Amino acid sequences for entries named in this document (tags omitted).
UniProt P56959: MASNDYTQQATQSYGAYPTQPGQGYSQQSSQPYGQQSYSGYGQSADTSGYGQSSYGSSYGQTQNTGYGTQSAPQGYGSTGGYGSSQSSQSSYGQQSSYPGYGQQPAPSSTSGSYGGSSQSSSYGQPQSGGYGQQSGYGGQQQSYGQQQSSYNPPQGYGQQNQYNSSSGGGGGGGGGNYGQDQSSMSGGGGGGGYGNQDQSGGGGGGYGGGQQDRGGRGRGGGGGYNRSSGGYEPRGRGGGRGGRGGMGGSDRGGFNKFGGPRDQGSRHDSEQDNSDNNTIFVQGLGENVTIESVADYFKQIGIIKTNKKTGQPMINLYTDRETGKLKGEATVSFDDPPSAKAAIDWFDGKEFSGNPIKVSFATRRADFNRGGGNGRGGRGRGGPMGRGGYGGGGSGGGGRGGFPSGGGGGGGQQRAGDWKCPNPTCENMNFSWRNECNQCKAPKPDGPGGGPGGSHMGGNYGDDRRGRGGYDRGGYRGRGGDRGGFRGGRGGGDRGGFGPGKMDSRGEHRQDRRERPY
UniProt P97855: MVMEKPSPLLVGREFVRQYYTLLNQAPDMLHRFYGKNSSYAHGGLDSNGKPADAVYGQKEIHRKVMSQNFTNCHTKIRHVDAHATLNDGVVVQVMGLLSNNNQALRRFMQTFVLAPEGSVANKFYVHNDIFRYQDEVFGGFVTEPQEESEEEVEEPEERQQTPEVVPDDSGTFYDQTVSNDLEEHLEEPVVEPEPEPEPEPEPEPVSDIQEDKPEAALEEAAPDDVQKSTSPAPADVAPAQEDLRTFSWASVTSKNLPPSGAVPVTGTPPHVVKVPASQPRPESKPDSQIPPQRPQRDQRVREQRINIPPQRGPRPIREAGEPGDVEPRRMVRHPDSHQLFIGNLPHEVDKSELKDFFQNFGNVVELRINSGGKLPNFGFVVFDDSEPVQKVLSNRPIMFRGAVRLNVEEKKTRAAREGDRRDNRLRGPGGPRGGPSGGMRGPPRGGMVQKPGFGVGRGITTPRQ

The target of experiment [1] is FUS, mouse (mouse (endogenous in primary mouse fibroblasts)) (UniProt P56959). The experiment can be described thus: co-IP; cytoplasmic and nuclear fractions (NE-PER) of primary mouse fibroblasts; lysates incubated with anti-FUS or anti-G3BP1 antibody overnight at 4 °C, protein G agarose 2 h at 4 °C; blotted with anti-LRSAM1; IgG as negative control.
For experiment [2], the target named is G3BP1, mouse (mouse (endogenous in primary mouse fibroblasts)) (UniProt P97855). The description is as above.

These are yes or no findings as the source states them, for the method shown. In cells and extracts the contact can be indirect. Some entries that bind do so weakly or less than the wild type.

B1: LRSAM1 (leucine rich repeat and sterile alpha motif 1), wild type, mouse (protein, UniProt Q80ZI6 1-727)
chain: MPLFFRKRKPSEEARKRLEYQMCLAKEAGADDILDISKCELSEIPFGAFATCKVLQKKVLIVHTNHLTSLLPKSCSLLSLVTIKVLDLHENQLTALPDDMGQLTVLQVLNVERNQLTHLPRSIGNLLQLQTLNVKDNKLKELPDTLGELRSLRTLDISENEIQRLPQMLAHVRTLETLSLNALAMVYPPPEVCGAGTAAVQQFLCKESGLDYYPPSQYLLPVLEQDGAENTQDSPDGPASRFSREEAEWQNRFSDYEKRKEQKMLEKLEFERRLDLGQREHAELLQQSHSHKDEILQTVKQEQTRLEQDLSERQRCLDAERQQLQEQLKQTEQSIASRIQRLLQDNQRQKKSSEILKSLENERIRMEQLMSITQEETENLRQREIAAAMQQMLTESCKSRLIQMAYESQRQSLAQQACSSMAEMDKRFQQILSWQQMDQNKAISQILQESVMQKAAFEALQVKKDLMHRQIRNQIRLIETELLQLTQLELKRKSLDTETLQEMVSEQRWALSNLLQQLLKEKKQREEELHGILAELEAKSETKQENYWLIQYQRLLNQKPLSLKLQEEGMERRLVALLVELSAEHYLPLFAHHRISLDMLSRMSPGDLAKVGVSEAGLQHEILRRAQDLLAVPRVQPELKPLENEVLGALEPPTAPRELQESVRPSAPPAELDMPTSECVVCLEREAQMVFLTCGHVCCCQQCCQPLRTCPLCRQEISQRLRIYHSS
Consider B1, for which the binding entry in experiment [1] and in experiment [2] was “binds” in each case.

B2: LRSAM1 C698R, mouse (knock-in mutant) (protein, UniProt Q80ZI6 1-727)
chain: MPLFFRKRKPSEEARKRLEYQMCLAKEAGADDILDISKCELSEIPFGAFATCKVLQKKVLIVHTNHLTSLLPKSCSLLSLVTIKVLDLHENQLTALPDDMGQLTVLQVLNVERNQLTHLPRSIGNLLQLQTLNVKDNKLKELPDTLGELRSLRTLDISENEIQRLPQMLAHVRTLETLSLNALAMVYPPPEVCGAGTAAVQQFLCKESGLDYYPPSQYLLPVLEQDGAENTQDSPDGPASRFSREEAEWQNRFSDYEKRKEQKMLEKLEFERRLDLGQREHAELLQQSHSHKDEILQTVKQEQTRLEQDLSERQRCLDAERQQLQEQLKQTEQSIASRIQRLLQDNQRQKKSSEILKSLENERIRMEQLMSITQEETENLRQREIAAAMQQMLTESCKSRLIQMAYESQRQSLAQQACSSMAEMDKRFQQILSWQQMDQNKAISQILQESVMQKAAFEALQVKKDLMHRQIRNQIRLIETELLQLTQLELKRKSLDTETLQEMVSEQRWALSNLLQQLLKEKKQREEELHGILAELEAKSETKQENYWLIQYQRLLNQKPLSLKLQEEGMERRLVALLVELSAEHYLPLFAHHRISLDMLSRMSPGDLAKVGVSEAGLQHEILRRAQDLLAVPRVQPELKPLENEVLGALEPPTAPRELQESVRPSAPPAELDMPTSECVVCLEREAQMVFLTCGHVRCCQQCCQPLRTCPLCRQEISQRLRIYHSS
Turning to B2, the binding result in experiment [1] and in experiment [2] was “binds” throughout.
